Results from the supplement of paper PMC12067093, “Discovery and optimisation of a covalent ligand for TRIM25 and its application to targeted protein ubiquitination” (Chemical Science, 2025).
This is one part of the list.

By UniProt entry, the sequences of proteins in these tests, tags left out. Where a name states a change or a piece, a line headed by the entry shows the natural chain unless it says otherwise.
UniProt Q5VUG0: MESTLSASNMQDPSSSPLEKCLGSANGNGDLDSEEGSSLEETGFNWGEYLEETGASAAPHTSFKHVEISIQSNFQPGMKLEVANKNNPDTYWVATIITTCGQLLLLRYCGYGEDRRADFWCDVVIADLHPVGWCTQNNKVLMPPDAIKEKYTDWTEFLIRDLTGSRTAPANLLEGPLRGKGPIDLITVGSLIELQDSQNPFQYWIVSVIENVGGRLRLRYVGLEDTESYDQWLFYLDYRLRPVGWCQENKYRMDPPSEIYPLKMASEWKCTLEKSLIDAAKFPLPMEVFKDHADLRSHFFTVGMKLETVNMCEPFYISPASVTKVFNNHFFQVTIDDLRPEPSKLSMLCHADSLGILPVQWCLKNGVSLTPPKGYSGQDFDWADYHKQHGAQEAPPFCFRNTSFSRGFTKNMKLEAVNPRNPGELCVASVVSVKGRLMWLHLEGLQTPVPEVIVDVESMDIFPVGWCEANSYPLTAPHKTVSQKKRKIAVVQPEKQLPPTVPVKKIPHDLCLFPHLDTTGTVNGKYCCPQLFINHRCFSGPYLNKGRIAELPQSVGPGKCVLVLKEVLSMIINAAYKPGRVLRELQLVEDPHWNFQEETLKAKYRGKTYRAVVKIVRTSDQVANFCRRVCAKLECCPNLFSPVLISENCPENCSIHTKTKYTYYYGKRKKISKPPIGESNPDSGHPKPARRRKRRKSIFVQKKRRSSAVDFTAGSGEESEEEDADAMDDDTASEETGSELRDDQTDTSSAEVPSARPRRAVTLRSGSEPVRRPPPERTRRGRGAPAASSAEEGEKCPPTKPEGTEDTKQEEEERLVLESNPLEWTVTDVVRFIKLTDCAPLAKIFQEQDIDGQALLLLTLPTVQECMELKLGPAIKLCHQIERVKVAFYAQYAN
UniProt Q96NB2: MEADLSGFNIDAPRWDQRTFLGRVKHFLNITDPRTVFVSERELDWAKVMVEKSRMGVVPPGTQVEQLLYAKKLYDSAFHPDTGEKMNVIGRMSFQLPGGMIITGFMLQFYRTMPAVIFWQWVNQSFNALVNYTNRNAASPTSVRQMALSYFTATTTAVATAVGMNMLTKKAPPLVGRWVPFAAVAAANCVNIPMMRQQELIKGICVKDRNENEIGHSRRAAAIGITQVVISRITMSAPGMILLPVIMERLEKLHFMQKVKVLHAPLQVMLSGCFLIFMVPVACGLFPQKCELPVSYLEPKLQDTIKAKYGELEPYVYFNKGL
UniProt P34896: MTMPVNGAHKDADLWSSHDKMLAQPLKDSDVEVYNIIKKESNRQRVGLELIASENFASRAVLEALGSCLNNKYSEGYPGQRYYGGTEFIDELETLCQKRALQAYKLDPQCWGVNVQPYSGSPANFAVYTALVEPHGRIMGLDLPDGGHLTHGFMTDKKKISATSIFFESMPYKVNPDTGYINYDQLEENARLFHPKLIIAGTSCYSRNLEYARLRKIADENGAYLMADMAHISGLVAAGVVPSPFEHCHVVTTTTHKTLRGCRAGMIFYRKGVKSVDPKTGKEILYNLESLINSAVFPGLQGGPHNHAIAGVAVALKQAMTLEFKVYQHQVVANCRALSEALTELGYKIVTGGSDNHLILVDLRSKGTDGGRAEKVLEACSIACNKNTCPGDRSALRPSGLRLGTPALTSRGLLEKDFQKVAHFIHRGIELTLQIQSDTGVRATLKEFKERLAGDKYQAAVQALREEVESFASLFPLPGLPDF
UniProt Q9BYW2: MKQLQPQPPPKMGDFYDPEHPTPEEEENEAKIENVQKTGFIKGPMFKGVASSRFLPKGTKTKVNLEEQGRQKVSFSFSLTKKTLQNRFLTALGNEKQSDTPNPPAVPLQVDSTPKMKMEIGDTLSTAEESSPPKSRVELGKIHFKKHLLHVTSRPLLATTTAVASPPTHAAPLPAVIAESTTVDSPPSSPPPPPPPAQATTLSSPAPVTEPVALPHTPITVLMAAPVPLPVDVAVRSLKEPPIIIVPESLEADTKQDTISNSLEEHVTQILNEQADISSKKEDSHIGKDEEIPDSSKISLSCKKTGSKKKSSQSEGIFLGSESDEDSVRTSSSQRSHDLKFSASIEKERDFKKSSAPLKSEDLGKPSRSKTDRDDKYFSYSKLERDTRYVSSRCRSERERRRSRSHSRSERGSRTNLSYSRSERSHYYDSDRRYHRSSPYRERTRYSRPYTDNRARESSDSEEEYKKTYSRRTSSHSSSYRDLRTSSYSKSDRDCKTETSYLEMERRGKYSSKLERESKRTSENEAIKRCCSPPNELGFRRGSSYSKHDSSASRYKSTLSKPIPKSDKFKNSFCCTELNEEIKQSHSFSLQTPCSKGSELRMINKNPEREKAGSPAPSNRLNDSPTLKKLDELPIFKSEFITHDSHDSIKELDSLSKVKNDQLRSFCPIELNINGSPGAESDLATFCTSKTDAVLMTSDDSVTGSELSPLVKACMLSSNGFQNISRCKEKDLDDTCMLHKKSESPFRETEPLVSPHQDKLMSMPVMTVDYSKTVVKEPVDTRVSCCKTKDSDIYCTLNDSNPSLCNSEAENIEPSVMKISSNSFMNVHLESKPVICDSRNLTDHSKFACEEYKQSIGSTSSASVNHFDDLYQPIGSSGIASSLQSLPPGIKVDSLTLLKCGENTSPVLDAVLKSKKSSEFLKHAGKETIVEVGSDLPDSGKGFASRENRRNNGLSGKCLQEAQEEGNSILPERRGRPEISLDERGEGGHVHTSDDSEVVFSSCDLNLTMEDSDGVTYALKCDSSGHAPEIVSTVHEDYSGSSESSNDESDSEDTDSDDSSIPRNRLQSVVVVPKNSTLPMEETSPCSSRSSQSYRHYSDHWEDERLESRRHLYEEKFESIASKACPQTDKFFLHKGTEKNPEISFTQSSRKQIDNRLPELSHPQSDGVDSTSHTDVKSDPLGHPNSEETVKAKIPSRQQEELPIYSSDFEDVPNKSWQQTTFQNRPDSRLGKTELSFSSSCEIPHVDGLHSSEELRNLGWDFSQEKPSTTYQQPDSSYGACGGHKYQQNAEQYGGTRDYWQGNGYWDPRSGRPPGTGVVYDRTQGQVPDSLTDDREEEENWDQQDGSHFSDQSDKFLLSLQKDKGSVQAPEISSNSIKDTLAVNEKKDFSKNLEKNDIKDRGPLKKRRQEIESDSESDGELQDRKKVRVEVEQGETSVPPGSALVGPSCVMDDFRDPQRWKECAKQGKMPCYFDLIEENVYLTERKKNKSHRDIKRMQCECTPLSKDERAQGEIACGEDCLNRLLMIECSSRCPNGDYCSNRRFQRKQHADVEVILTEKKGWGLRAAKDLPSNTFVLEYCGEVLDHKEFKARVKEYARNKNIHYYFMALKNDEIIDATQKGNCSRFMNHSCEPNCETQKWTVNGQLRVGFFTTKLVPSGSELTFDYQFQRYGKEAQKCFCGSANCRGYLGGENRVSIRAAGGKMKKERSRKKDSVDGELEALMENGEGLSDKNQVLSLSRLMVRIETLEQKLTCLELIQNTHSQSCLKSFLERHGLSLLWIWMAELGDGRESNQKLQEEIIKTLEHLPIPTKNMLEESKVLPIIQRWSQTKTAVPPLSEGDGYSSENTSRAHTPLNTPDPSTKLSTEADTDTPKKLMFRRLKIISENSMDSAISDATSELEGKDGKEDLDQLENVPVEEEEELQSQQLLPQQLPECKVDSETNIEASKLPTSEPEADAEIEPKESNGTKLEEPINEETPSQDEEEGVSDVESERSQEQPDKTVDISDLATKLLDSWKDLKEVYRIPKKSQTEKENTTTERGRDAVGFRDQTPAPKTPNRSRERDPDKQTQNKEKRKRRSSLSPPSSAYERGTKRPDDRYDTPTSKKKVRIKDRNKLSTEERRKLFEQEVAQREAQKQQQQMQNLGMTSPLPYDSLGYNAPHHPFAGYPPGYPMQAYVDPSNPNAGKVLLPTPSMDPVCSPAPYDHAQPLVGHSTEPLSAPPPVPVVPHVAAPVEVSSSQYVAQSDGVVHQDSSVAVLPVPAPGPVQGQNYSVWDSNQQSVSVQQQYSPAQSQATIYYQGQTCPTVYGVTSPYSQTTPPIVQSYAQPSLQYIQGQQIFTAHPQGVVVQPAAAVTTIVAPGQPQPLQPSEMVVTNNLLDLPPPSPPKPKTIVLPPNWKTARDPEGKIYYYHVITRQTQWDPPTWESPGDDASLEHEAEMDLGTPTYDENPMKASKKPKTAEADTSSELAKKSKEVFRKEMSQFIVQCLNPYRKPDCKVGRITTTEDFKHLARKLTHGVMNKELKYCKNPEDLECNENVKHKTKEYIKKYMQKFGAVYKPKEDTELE
UniProt Q9UHJ3: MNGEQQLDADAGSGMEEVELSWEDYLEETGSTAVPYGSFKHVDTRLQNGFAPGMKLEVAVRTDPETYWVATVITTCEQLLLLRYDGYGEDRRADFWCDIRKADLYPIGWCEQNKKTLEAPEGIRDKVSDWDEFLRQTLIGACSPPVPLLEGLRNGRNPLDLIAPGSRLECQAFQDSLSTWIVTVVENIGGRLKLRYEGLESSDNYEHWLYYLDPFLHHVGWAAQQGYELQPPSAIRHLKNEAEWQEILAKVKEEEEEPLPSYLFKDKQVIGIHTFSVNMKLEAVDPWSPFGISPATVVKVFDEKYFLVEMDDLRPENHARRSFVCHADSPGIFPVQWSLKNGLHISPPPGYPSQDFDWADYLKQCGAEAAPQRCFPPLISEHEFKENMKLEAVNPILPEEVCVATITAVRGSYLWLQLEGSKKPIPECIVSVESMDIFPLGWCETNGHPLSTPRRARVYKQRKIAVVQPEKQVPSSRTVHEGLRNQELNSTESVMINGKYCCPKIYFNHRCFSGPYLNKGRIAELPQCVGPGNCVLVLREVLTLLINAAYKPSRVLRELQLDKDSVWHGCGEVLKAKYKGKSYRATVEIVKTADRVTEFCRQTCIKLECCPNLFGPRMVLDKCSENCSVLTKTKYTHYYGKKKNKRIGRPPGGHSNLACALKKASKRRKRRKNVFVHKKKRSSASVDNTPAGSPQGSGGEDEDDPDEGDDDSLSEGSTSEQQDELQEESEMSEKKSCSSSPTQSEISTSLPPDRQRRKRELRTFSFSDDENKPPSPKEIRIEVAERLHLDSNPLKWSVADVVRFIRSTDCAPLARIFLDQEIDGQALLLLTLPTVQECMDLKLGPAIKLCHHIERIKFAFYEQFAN
UniProt Q6PCB7: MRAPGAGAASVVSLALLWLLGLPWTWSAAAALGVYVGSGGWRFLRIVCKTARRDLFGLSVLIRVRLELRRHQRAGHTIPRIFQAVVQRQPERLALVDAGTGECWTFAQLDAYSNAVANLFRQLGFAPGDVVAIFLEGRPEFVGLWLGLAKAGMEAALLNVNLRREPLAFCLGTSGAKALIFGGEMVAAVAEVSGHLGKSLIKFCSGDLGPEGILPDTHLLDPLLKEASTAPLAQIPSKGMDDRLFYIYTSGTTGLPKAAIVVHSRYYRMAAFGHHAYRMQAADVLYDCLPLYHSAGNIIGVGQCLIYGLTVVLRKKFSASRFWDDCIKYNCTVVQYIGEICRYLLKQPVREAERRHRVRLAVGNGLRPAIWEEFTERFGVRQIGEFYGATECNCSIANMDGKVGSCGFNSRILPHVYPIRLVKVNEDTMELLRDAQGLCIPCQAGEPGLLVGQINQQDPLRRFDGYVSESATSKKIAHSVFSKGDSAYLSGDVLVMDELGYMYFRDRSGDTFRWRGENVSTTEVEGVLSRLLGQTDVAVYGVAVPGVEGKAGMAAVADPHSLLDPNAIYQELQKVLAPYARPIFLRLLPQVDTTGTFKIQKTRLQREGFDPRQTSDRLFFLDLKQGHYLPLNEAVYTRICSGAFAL
UniProt Q9UH03, whole entry, looked up: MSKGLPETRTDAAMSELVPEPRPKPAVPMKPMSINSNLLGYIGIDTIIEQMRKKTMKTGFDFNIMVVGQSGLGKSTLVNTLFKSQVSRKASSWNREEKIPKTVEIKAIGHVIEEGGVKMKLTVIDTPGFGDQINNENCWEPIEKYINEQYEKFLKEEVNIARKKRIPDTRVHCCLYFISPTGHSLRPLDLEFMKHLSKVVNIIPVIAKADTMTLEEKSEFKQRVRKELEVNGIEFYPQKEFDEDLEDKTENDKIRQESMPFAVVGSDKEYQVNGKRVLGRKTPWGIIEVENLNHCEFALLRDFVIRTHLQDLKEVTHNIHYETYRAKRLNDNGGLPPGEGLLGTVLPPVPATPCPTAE
UniProt Q14141: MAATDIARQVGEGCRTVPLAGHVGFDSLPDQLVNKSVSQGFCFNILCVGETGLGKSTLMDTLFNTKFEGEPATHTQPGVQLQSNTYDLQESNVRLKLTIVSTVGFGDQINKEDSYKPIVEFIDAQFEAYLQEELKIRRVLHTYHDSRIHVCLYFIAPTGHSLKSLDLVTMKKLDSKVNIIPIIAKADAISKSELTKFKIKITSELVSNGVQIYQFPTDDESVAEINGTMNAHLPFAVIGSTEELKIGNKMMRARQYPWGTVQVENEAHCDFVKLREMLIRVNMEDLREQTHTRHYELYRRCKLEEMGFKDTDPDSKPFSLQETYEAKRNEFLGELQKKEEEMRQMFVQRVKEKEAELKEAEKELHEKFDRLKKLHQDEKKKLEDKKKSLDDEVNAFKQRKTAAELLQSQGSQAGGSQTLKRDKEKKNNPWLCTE

Compound: CC1Cc2ccccc2N1C(=O)C1CCCN(C1)C(=O)CCl (mixture of isomers) [TRIM25 ligand 11 (diastereomer mixture)]
Experiment: probe-labelled cysteine peptide fold change vs DMSO (competition) (log2 fold change); higher = less target engagement (more negative = stronger competition)
Details: THP-1, incubation time: 4 h
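Further: competitive chemoproteomic profiling in live THP-1 cells with an iodoacetamide desthiobiotin (IA-DTB) probe, comparing probe-labelled peptide intensities in compound-treated cells against DMSO-treated controls.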

Row | Target | probe-labelled cysteine peptide fold change (10 µM) | probe-labelled cysteine peptide fold change (50 µM)
1 | SLC1A5_Q15758_363_CVEENNGVAK (UniProt Q15758) | -0.142 | -0.0912
2 | SFMBT2_Q5VUG0_426_NPGELCVASVVSVK (UniProt Q5VUG0) | 0.309 | 0.165
3 | SGO2_Q562F6_1041_HITSEADSDPGNPVELCK (UniProt Q562F6) | 0.061 | -0.0335
4 | SKP1_P63208_62_VIQWCTHHK (UniProt P63208) | 0.00537 | 0.0343
5 | SLC25A1_P53007_127_GLLCGLGAGVAEAVVVVCPMETIK (UniProt P53007) | -0.0544 | -0.143
6 | SERPINB10_P48595_68_CDPESEK (UniProt P48595) | -0.0835 | -0.134
7 | SFXN2_Q96NB2_189_WVPFAAVAAANCVNIPMMR (UniProt Q96NB2) | 0.408 | -0.0256
8 | SIGLEC5_O15389_314_SAEEGGFTCR (UniProt O15389) | 0.0112 | 0.0993
9 | SEPT7_Q16181_280_QYPWGVAEVENGEHCDFTILR (UniProt Q16181) | -0.0336 | 0.0042
10 | SHMT1_P34896_335_VYQHQVVANCR (UniProt P34896) | 0.0178 | 0.112
11 | SLAIN1_Q8ND83_313_KGTCSDQEYDQYSLEDEEEFDHLPPPQPR (UniProt Q8ND83) | -0.084 | -0.0386
12 | SETD2_Q9BYW2_736_DLDDTCMLHK (UniProt Q9BYW2) | -0.223 | -0.361
13 | SF3A3_Q12874_408+411_LHGLNINYNCEICGNYTYR (UniProt Q12874) | 0.104 | 0.199
14 | SFMBT1_Q9UHJ3_325_SFVCHADSPGIFPVQWSLK (UniProt Q9UHJ3) | 0.0477 | 0.225
15 | SGTA_O43765_148_LGNYAGAVQDCER (UniProt O43765) | -0.0452 | 0.109
16 | SF3B3_Q15393_289_NDLDDPERGMIFVCSATHK (UniProt Q15393) | -0.0511 | 0.176
17 | SF3B1_O75533_1035_VQENCIDLVGR (UniProt O75533) | -0.0917 | 0.101
18 | SIPA1_Q96FS4_632_VVFNCACR (UniProt Q96FS4) | 0.106 | 0.266
19 | SLC25A24_Q6NUK1_330_TGQYSGIYDCAK (UniProt Q6NUK1) | -0.0738 | -0.0691
20 | SGO1_Q5FBB7_478_CTASVNYK (UniProt Q5FBB7) | 0.000507 | -0.118

Row | Target | probe-labelled cysteine peptide fold change (10 µM) | probe-labelled cysteine peptide fold change (50 µM)
21 | SHKBP1_Q8TBC3_491_ILALESADGHGGCSAGNDIGPYGER (UniProt Q8TBC3) | 0.00985 | -0.0671
22 | SHPRH_Q149N8_1025_QLVCALNGLAGIHIIK (UniProt Q149N8) | 0.0951 | -0.274
23 | SIK3_Q9Y2K2_655_QLQQECEQLQK (UniProt Q9Y2K2) | 0.0351 | 0.0789
24 | SKP2_Q13309_327_NDCFQEFFQLNYLQHLSLSR (UniProt Q13309) | -0.129 | -0.282
25 | SHMT1_P34896_384_VLEACSIACNK (UniProt P34896) | -0.0385 | -0.0507
26 | SFPQ_P23246_431_CSEGVFLLTTTPR (UniProt P23246) | 0.0453 | 0.126
27 | SHCBP1_Q8NEM2_271_SSLSNCNSDSEQENISMVEGLK (UniProt Q8NEM2) | -0.0856 | -0.0915
28 | SLC27A1_Q6PCB7_204_FCSGDLGPEGILPDTHLLDPLLK (UniProt Q6PCB7) | 0.156 | 0.0995
29 | SHMT2_P34897_91_AALEALGSCLNNK (UniProt P34897) | 0.0184 | -0.00736
30 | SETD2_Q9BYW2_1086_NSTLPMEETSPCSSR (UniProt Q9BYW2) | 0.377 | -0.415
31 | SEPT3_Q9UH03_295_TPWGIIEVENLNHCEFALLR (UniProt Q9UH03) | -0.0379 | -0.18
32 | SIGIRR_Q6IA17_174_LYDAYVSYSDCPEDR (UniProt Q6IA17) | 0.24 | -0.151
33 | SF3B6_Q9Y3B4_74+83_NACDHLSGFNVCNR (UniProt Q9Y3B4) | 0.228 | 0.0789
34 | SEPT6_Q14141_14_QVGEGCR (UniProt Q14141) | -0.0601 | -0.0828
35 | SH3GL1_Q99961_96_NPGYPQSEGLLGECMIR (UniProt Q99961) | -0.0238 | -0.243
36 | SLC25A10_Q9UBX3_181_GALVTVGQLSCYDQAK (UniProt Q9UBX3) | 0.0626 | 0.168
37 | SLAIN2_Q9P270_165_QVLDYPSPDVECAK (UniProt Q9P270) | -0.02 | -0.227
38 | SKAP2_O75563_185_DCCFEISAPDKR (UniProt O75563) | -0.0767 | 0.159
39 | SEPT6_Q14141_47_SVSQGFCFNILCVGETGLGK (UniProt Q14141) | 0.436 | 0.185
